Experimental data from PMC3045356.
These are yes or no findings as the source states them, for the method shown. In cells and extracts the contact can be indirect. Some entries that bind do so weakly or less than the wild type.

How the values were obtained:
[1] = target: Death receptor 5 (DR5) (human (endogenous in SW948)), O14763; experiment: co-IP; DR4-DISC and DR5-DISC: SW948 cells stimulated 15 min at 37°C with 5 μg/ml agonistic antibody (HGS-ETR1 for DR4, TR2J for DR5); lysis in 0.2% Nonidet P-40, 150 mM NaCl, 20 mM Tris-HCl pH 7.5; precipitated with protein-G agarose; Western blot for DR4, DR5, FADD, caspase 8, c-FLIP; conditions: remark: other sources report otherwise
[2] = target: Death receptor 4 (DR4) (human (endogenous in SW948)), O00220; experiment: as above; conditions: remark: other sources report otherwise

B1: Caspase 8, Q14790 1-479 (enzyme)
chain: MDFSRNLYDIGEQLDSEDLASLKFLSLDYIPQRKQEPIKDALMLFQRLQEKRMLEESNLSFLKELLFRINRLDLLITYLNTRKEEMERELQTPGRAQISAYRVMLYQISEEVSRSELRSFKFLLQEEISKCKLDDDMNLLDIFIEMEKRVILGEGKLDILKRVCAQINKSLLKIINDYEEFSKERSSSLEGSPDEFSNGEELCGVMTISDSPREQDSESQTLDKVYQMKSKPRGYCLIINNHNFAKAREKVPKLHSIRDRNGTHLDAGALTTTFEELHFEIKPHDDCTVEQIYEILKIYQLMDHSNMDCFICCILSHGDKGIIYGTDGQEAPIYELTSQFTGLKCPSLAGKPKVFFIQACQGDNYQKGIPVETDSEEQPYLEMDLSSPQTRYIPDEADFLLGMATVNNCVSYRNPAEGTWYIQSLCQSLRERCPRGDDILTILTEVNYEVSNKDDKKNMGKQMPQPTFTLRKKLVFPSD
B1 was tested, and the binding [1] was “binds” and the binding [2] was “binds”.
